From patent publication US20040198774A1, “Preventive and/or remedial agent for disease attributable to arteriosclerotic activity” (priority 2001, published 2004)
At least one compound was matched to its structure with a doubt left.

System: VCAM-1 expression in human aortic endothelial cells (HAEC)
Test: Expression of VCAM-1 in TNF-α stimulated human aortic endothelial cells (cell ELISA)
Assay type: cell-based
Conditions: test agent 0.03 to 30 μM, TNF-α 10 ng/mL for 4 hours, FIG. 1
Description: An effect on the expression of adhesion molecules in vascular endothelial cells was investigated using human aortic endothelial cells (available from Clonetics Corp., USA, and hereinafter abbreviated as “HAEC”). In usual, the HAEC cells were cultured in EGM-2 medium (Clonetics) containing 2% FBS (Clonetics) in a CO2 incubator (5% CO2, 37° C.). On the first day, the HAEC cells suspended in EGM-2 medium containing 2% FBS were seeded in 96-well plates at 1×10^5 cells/well and then cultured. On the second day, after the cells were washed with PBS, the culture medium was replaced with 200 μL of EGM-2 medium containing 0.4% FBS and the test agent at various concentrations (0.03 to 30 μM) (final DMSO concentration: 0.1%) to culture the cells for 24 hours. […] After stimulation with TNF-α, the cells were washed with PBS, and then the amount of VCAM-1 expressed was evaluated according to the following cell ELISA method using an anti-human VCAM-1 antibody solution (PharMingen). […] After reaction, the absorbance was measured using a microplate spectrophotometer, and the obtained absorbance was used as an index of the amount of VCAM-1 expressed.

With CC(C)OC(=O)C(C)(C)Oc1ccc(C(=O)c2ccc(Cl)cc2)cc1 [Fenofibrate] the “effect on the expression of VCAM-1 induced by stimulation with TNF-α” value was “suppressed”.
